Test system: PFOB labeled islets in kidney of mice
Experiment: CT and 19F MRI of labeled islets transplanted under the renal capsule of mice
Assay type: in vivo, mouse

FC(F)(F)C(F)(F)C(F)(F)C(F)(F)C(F)(F)C(F)(F)C(F)(F)C(F)(F)Br [PFOB, perfluorooctylbromide]
detection of labeled islets by high resolution 19F MRI (after transplantation into the kidney of mice): clearly distinguishable from soft tissue
detection of labeled islets by CT imaging (in vivo after transplantation into the kidney of mice): identified in vivo

Source: patent US20110020239A1, “METHODS FOR IN VIVO IMAGING OF CELLS” (The Johns Hopkins University, priority 2007, published 2011)
